Whole data set: some 33,000 sequences, median “E-score (-0.5 to 0.5)” near -8e-05, cut for the highest 2% near 0.23. The list shows a part of the results.
Each sequence was assayed against T1, Nrg2 (UniProt P38082) (assay: PBM E-score (8-mer binding enrichment) (E-score (-0.5 to 0.5)); higher = stronger / more preferred TF binding). Details: protein concentration: 100 nM; construct: GST-full length.
T1 sequence: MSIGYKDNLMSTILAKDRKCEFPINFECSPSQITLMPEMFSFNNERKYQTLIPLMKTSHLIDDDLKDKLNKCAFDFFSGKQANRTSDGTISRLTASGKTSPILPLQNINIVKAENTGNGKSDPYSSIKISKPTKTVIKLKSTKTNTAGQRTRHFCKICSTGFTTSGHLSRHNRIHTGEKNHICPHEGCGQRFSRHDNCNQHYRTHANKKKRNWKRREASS
In short: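 Detection of bound protein used fluorescent anti-GST, with scans normalised by masliner. The proteins were GST-tagged yeast transcription factors applied at about 100-200 nM to universal all-10-mer Agilent arrays made double-stranded by primer extension. Each ungapped eight-base word, pooled with its reverse complement, was scored with an E-score from the Universal PBM Analysis Suite.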
For AAGCTCGC, the “PBM E-score” value was 0.0882. For CGTGAGTA, the “PBM E-score” value was 0.0428. With ATGATCTC the “PBM E-score” value was 0.087. For CAACCGCA, the “PBM E-score” value was 0.0352. With CACCACCC the “PBM E-score” value was -0.111. CGTACTTA was tested, and the “PBM E-score” value was 0.115. In the case of AGCGCTGG, the “PBM E-score” value was -0.00329. AATCCATT was tested, and the “PBM E-score” value was 0.198. With AACTTCCA the “PBM E-score” value was -0.0462. For AGGCCGAT, the “PBM E-score” value was 0.0473. With GATGCAGC the “PBM E-score” value was 0.0624. For CAATTTCC, the “PBM E-score” value was 0.108. For ATACATCC, the “PBM E-score” value was 0.0716. With CAACTAGG the “PBM E-score” value was -0.0389. In the case of CTCCCTGA, the “PBM E-score” value was 0.0641. For ATATTGAG, the “PBM E-score” value was 0.11. In the case of AAGCTAAC, the “PBM E-score” value was 0.0145. In the case of AGACCCAT, the “PBM E-score” value was -0.0557. In the case of ACGGAGAA, the “PBM E-score” value was -0.0632. For AATTGCCT, the “PBM E-score” value was 0.0385. With CCGTCTTC the “PBM E-score” value was -0.0617. CACCAAAG was tested, and the “PBM E-score” value was 0.142. In the case of CTACCTGA, the “PBM E-score” value was -0.184. In the case of ATGAACCC, the “PBM E-score” value was 0.217. For GGTGCAGA, the “PBM E-score” value was -0.0954. With CGGGAGCA the “PBM E-score” value was -0.132. With CACTTTGC the “PBM E-score” value was 0.00398. In the case of GCAGCAAC, the “PBM E-score” value was 0.165. With TATGTCCA the “PBM E-score” value was -0.0135. In the case of AATGCGCA, the “PBM E-score” value was 0.296. AGTTACGG was tested, and the “PBM E-score” value was -0.132. In the case of CTTCGCAC, the “PBM E-score” value was -0.0537. With TGGAACAA the “PBM E-score” value was 0.155. For GTCTCATA, the “PBM E-score” value was -0.00328. In the case of CAGACAGC, the “PBM E-score” value was -0.0799. With ACAAGAGC the “PBM E-score” value was 0.0831. With GTGCGTAA the “PBM E-score” value was -0.0379. For AATTCCTG, the “PBM E-score” value was -0.173. For ATGTATTG, the “PBM E-score” value was 0.131. For AACAATAC, the “PBM E-score” value was 0.202. CAGGTATC was tested, and the “PBM E-score” value was 0.0306. ATTACAAA was tested, and the “PBM E-score” value was 0.0937. In the case of TCACCACA, the “PBM E-score” value was 0.0975. In the case of CATTTTTC, the “PBM E-score” value was -0.00355. In the case of CAAGCCAC, the “PBM E-score” value was -0.154. In the case of AGACCCTA, the “PBM E-score” value was 0.148. For ATTCAGCG, the “PBM E-score” value was 0.0761. With AAATACGC the “PBM E-score” value was 0.125. With AAGTCTTC the “PBM E-score” value was -0.177. For GACCCACA, the “PBM E-score” value was 0.154. In the case of AGATGTTC, the “PBM E-score” value was -0.105. For ACAATTCG, the “PBM E-score” value was 0.111. CGGCACAA was tested, and the “PBM E-score” value was 0.0208. For AAATCCGC, the “PBM E-score” value was -0.103. For CCGCCCGA, the “PBM E-score” value was 0.148. In the case of ATACGAAA, the “PBM E-score” value was 0.13. With ACCAGGGG the “PBM E-score” value was -0.0407. For AAATCGAG, the “PBM E-score” value was 0.0129. In the case of GGTTTGTA, the “PBM E-score” value was 0.014. For CCATGTAC, the “PBM E-score” value was -0.192. With CGGCCTTC the “PBM E-score” value was 0.0996. For ACTAATAC, the “PBM E-score” value was 0.131. For CGCTGCAC, the “PBM E-score” value was 0.0587. With CTGTTAAA the “PBM E-score” value was -0.0898. In the case of GCCGTAAC, the “PBM E-score” value was -0.134. In the case of CAGCCGGA, the “PBM E-score” value was 0.0548. In the case of AATACTGC, the “PBM E-score” value was 0.068. With CATTCCTA the “PBM E-score” value was -0.0667. With ACTCCTTA the “PBM E-score” value was 0.061. For GCCCACAA, the “PBM E-score” value was 0.00478. In the case of ACGGCACC, the “PBM E-score” value was -0.343. In the case of TCGAATCA, the “PBM E-score” value was 0.138. AAGTATAA was tested, and the “PBM E-score” value was 0.156. For TCATTCCA, the “PBM E-score” value was 0.0235. With GTGCCGCA the “PBM E-score” value was 0.014. In the case of CAATGGCG, the “PBM E-score” value was 0.0508. With TCGAGGCA the “PBM E-score” value was 0.0832. AGCTCGAA was tested, and the “PBM E-score” value was 0.228. In the case of AAAAGCGC, the “PBM E-score” value was 0.0157. GAAATGGC was tested, and the “PBM E-score” value was 0.0113. CGAGAGCC was tested, and the “PBM E-score” value was -0.167. AACTAACC was tested, and the “PBM E-score” value was 0.226. For ATTGTCAA, the “PBM E-score” value was 0.0134. In the case of ACCTAAGT, the “PBM E-score” value was 0.126. With ACGGGACT the “PBM E-score” value was -0.0768. With GATAAATC the “PBM E-score” value was 0.023. CAGTTACC was tested, and the “PBM E-score” value was -0.0336. In the case of ACGCCGCA, the “PBM E-score” value was 0.0786. In the case of TCCCTCCA, the “PBM E-score” value was -0.19. In the case of CATAGAAG, the “PBM E-score” value was -0.0461. CAGCGGTA was tested, and the “PBM E-score” value was 0.0158. For AGCCTAGA, the “PBM E-score” value was -0.252. For CGTAGGGC, the “PBM E-score” value was -0.238. With AATTGACA the “PBM E-score” value was 0.0536. For AACCTTGT, the “PBM E-score” value was -0.303. In the case of CAGGGGTA, the “PBM E-score” value was 0.166. In the case of CGCTAGCG, the “PBM E-score” value was -0.202. In the case of CCTCGACG, the “PBM E-score” value was -0.0445. With CGGCCCAG the “PBM E-score” value was -0.264. In the case of ACCGTCAT, the “PBM E-score” value was -0.00617. In the case of ACCACTAG, the “PBM E-score” value was 0.0148. In the case of TCTTCCCA, the “PBM E-score” value was -0.311. In the case of AAGAATGA, the “PBM E-score” value was 0.00394. For GCGACAGC, the “PBM E-score” value was -0.088. For AAGATGCT, the “PBM E-score” value was -0.0457. For ACTCCAGC, the “PBM E-score” value was -0.0193. With CCAATCCA the “PBM E-score” value was -0.097. CCCGTCCG was tested, and the “PBM E-score” value was -0.34. In the case of GACTCCCC, the “PBM E-score” value was -0.308. With AACCCCAC the “PBM E-score” value was 0.0039. For GCGGCGTA, the “PBM E-score” value was 0.0576. For AACCCCAT, the “PBM E-score” value was 0.07. With CAAGCACG the “PBM E-score” value was -0.0237. With ACATGGCA the “PBM E-score” value was -0.0242. With ACATTGTG the “PBM E-score” value was -0.0449. AAACACGG was tested, and the “PBM E-score” value was -0.00565. ACGCGAAG was tested, and the “PBM E-score” value was 0.00927. In the case of AGAGGGGG, the “PBM E-score” value was -0.401. For AGGAGTGA, the “PBM E-score” value was -0.0013. In the case of ATTAATTA, the “PBM E-score” value was 0.117. For AAACTACC, the “PBM E-score” value was -0.00755. For CGTTTCGA, the “PBM E-score” value was -0.0952. In the case of ACGTGGCC, the “PBM E-score” value was -0.227. CAACCCGA was tested, and the “PBM E-score” value was -0.0205. In the case of GTAGGAAA, the “PBM E-score” value was -0.0222. For ATATATAC, the “PBM E-score” value was 0.329. For CATTCAAA, the “PBM E-score” value was 0.149. With AGCTCCCG the “PBM E-score” value was -0.258. With GCTCCGTA the “PBM E-score” value was -0.165. In the case of CACAGTCG, the “PBM E-score” value was -0.141. ATGCAACA was tested, and the “PBM E-score” value was 0.149. For TATATCCA, the “PBM E-score” value was 0.113. AACCAGGG was tested, and the “PBM E-score” value was 0.176. For AGAATTTG, the “PBM E-score” value was -0.047. For GTGTCAAC, the “PBM E-score” value was -0.0626. For AAAGCTGG, the “PBM E-score” value was -0.106. With GCGGACAC the “PBM E-score” value was -0.0599. For GCCTATAA, the “PBM E-score” value was -0.0781. In the case of AACCCAGC, the “PBM E-score” value was -0.18. With GCCTCAGA the “PBM E-score” value was -0.0665. In the case of CGAACTCC, the “PBM E-score” value was 0.0319. For CAACCCCG, the “PBM E-score” value was -0.0267. For AATTGTCT, the “PBM E-score” value was 0.077. In the case of CAATTTTA, the “PBM E-score” value was 0.125. In the case of AGGGTTGG, the “PBM E-score” value was 0.113. TACCGATA was tested, and the “PBM E-score” value was -0.0936. With CAGGCGCC the “PBM E-score” value was 0.0447. For AAGCGCAC, the “PBM E-score” value was 0.0375. For GCCATAAC, the “PBM E-score” value was -0.119. In the case of CTTGATAC, the “PBM E-score” value was -0.0285. In the case of GGACACCA, the “PBM E-score” value was -0.0284. In the case of GAGCACTC, the “PBM E-score” value was -0.0321. In the case of ATGTTAAG, the “PBM E-score” value was -0.0338. With GGTCTGGA the “PBM E-score” value was -0.166. GAAATCCC was tested, and the “PBM E-score” value was -0.0476. ACGAGCTA was tested, and the “PBM E-score” value was -0.0222. With CCTAAAAC the “PBM E-score” value was -0.0756. AGGATTAC was tested, and the “PBM E-score” value was -0.0582. ATCGCCAC was tested, and the “PBM E-score” value was 0.224. For CTTCCACA, the “PBM E-score” value was 0.0194. For TACTCATA, the “PBM E-score” value was -0.0491. AACGAAAC was tested, and the “PBM E-score” value was 0.117. With GGGCCCTA the “PBM E-score” value was 0.121. In the case of GGCGTCAC, the “PBM E-score” value was -0.11. For AAACTTTG, the “PBM E-score” value was 0.0472. AACATCTC was tested, and the “PBM E-score” value was 0.00055. GTAACCTA was tested, and the “PBM E-score” value was 0.0807. In the case of GCTCCAAC, the “PBM E-score” value was -0.0456. With ACGATCAG the “PBM E-score” value was 0.0391. In the case of TGAAAGCA, the “PBM E-score” value was 0.195. For CTGAGCCA, the “PBM E-score” value was -0.0665. CCCAGAAG was tested, and the “PBM E-score” value was -0.0851.
